From PubChem BioAssay AID2685 (National Center for Advancing Translational Sciences (NCATS), 2010)
This is one part of the list. Further columns of the screen follow, without active or inactive calls. The list favours compounds with an active or inconclusive main result. The note in brackets gives the kind of curve behind each potency; many fits are weak.

Assay: qHTS Assay for Lipid Storage Modulators in Drosophila S3 Cells;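 as to cell number change: cells counted by Cell Tracker Red CMTPX staining in the red channel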
Conditions: BODIPY lipid droplet fluorescence, 18-24 h; for cell number change: measured here: cell count max response, cells fed with added oleic acid
In short: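 Drosophila S3 cells loaded with oleic acid (400 uM, as added) and compounds at several concentrations; lipid droplets imaged by 488-nm laser-scanning cytometry, 500–530 nm intensity and object ratio to cell channel. Percent activity normalized to 20 uM Triacsin C.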

[1] = measured here: lipid fluorescence (Fed channel) AC50, cells fed with added oleic acid
[2] = measured here: cell number channel AC50, cells fed with added oleic acid

COc1ccc(N2CCN(C(=O)CCN3C(=O)C4C5C=CC(C5)C4C3=O)CC2)cc1 (stereo unspecified)
cell number change: -23% | AC50 [1]: 29.1 µM [falling, single point]

COc1ccc(/C=N/n2cnc3c([nH]c4ccc(F)cc43)c2=O)cc1CSc1ccccn1
cell number change: 32.1% | AC50 [2]: 0.461 µM [rising, full curve, poor fit] | AC50 [1]: 29.1 µM [rising, partial curve, poor fit]

Cc1ccc(-c2cnco2)cc1
cell number change: 13.5% | AC50 [1]: 6.51 µM [falling, single point]

O=S(=O)(c1ccc(F)cc1)c1nc(-c2ccccc2F)oc1N1CCCCC1
cell number change: -13% | AC50 [1]: 1.16 µM [rising, partial curve]

CC12COC3(C(=O)Nc4ccccc4)CC1CCC32C (stereo unspecified)
cell number change: -7.76% | AC50 [1]: 3.66 µM [falling, single point]

O=C(C1=CC=CN2CCS(=O)(=O)N=C12)N1CCN(c2cccc(Cl)c2)CC1
cell number change: -11.6% | AC50 [1]: 0.116 µM [falling, full curve, poor fit]

O=C(O)CCN=C1CCc2ccccc2N1
cell number change: -44.7% | AC50 [2]: 18.4 µM [falling, partial curve, poor fit] | AC50 [1]: 14.6 µM [falling, partial curve]

Cc1oncc1C(=O)Nc1cccc2ccccc12
cell number change: -3.87% | AC50 [1]: 20.6 µM [rising, single point]

CCOc1ccc(-c2nn[nH]n2)cc1OCC
cell number change: 5.02% | AC50 [2]: 1.84 µM [rising, partial curve]

O=C(C1CCCO1)N1CCN(C(=S)Nc2ccc(Cl)cc2)CC1 (stereo unspecified)
cell number change: 18.5% | AC50 [2]: 6.51 µM [falling, single point]

COc1ccc(CCNC(=O)C(C)n2nc(C)n3c(cc4occc43)c2=O)cc1OC (stereo unspecified)
cell number change: 11.8% | AC50 [1]: 18.4 µM [rising, single point]

NC(=O)COC(=O)Cc1coc2cc3c(cc12)CCC3
cell number change: 17.2%

COc1ccc(NC(=O)CN(C)C(=O)c2cc3c(s2)CCCCC3)cc1
cell number change: 13% | AC50 [1]: 32.6 µM [rising, partial curve]

NS(=O)(=O)c1ccc(CNS(=O)(=O)c2ccc3ccccc3c2)cc1
cell number change: 70.1% | AC50 [2]: 29.1 µM [rising, single point]

CC(=O)Nc1ccc(S(=O)(=O)N(C)CC(=O)Nc2ccccc2N2CCOCC2)cc1
cell number change: 21.5% | AC50 [1]: 4.11 µM [rising, full curve, poor fit]

CCOc1cc(NC(=O)c2ccccc2OC)c(OCC)cc1NC(=O)c1ccccc1
cell number change: -7.09% | AC50 [1]: 6.51 µM [falling, single point]

CC(OC(=O)c1ccc(NC(=O)CC#N)cc1)C(=O)NC(=O)NC1CCCCC1 (stereo unspecified)
AC50 [1]: 29.1 µM [falling, single point]

COc1ccc(Cc2nnc(NC(=O)c3c(-c4ccccc4)noc3C)s2)cc1
cell number change: 6.03%

Cc1nc2cc(Nc3ccncc3)ccc2s1
cell number change: -21.4%

O=C(CSc1ncnc2ccccc12)c1ccco1
cell number change: 42.6% | AC50 [2]: 16.4 µM [rising, partial curve] | AC50 [1]: 18.4 µM [rising, partial curve]

Cc1cc(C)n(-c2nc3c(c(=O)[nH]c(=O)n3C)n2CC(O)COc2ccccc2C)n1 (stereo unspecified)
cell number change: -59.2% | AC50 [2]: 29.1 µM [falling, single point] | AC50 [1]: 0.13 µM [falling, full curve, poor fit]

CNC(=O)NC(=O)CSc1nc2cc(C(=O)OC)ccc2c(=O)n1-c1ccccc1
cell number change: -37.6% | AC50 [2]: 32.6 µM [falling, single point] | AC50 [1]: 0.00651 µM [falling, full curve, poor fit]

COC(=O)c1cccc(NS(=O)(=O)c2ccc(OC)c(C(=O)N3CCOCC3)c2)c1C
cell number change: -2.5%

O=C(CSc1nnc2scc(-c3ccccc3)n12)c1ccc2c(c1)OCCO2
cell number change: 13.4% | AC50 [1]: 0.116 µM [rising, full curve, poor fit]

COc1ccc(OC)c(/C=C/C(=O)N2CCN(S(=O)(=O)c3ccc(C)cc3C)CC2)c1
cell number change: -4.14% | AC50 [1]: 6.51 µM [falling, partial curve, poor fit]

COc1ccc(N(CC(=O)Nc2cccc(SC)c2)S(C)(=O)=O)cc1
AC50 [1]: 0.116 µM [falling, full curve]

Cc1ccc(NC(=O)N2CCC(NC(=O)c3ccccc3C)CC2)cc1
cell number change: 31% | AC50 [2]: 0.517 µM [rising, full curve, poor fit] | AC50 [1]: 10.3 µM [rising, partial curve]

CCCCOc1cccc(NC(=O)CSc2nncn2C)c1
cell number change: 7.71% | AC50 [1]: 5.8 µM [rising, full curve, poor fit]

O=C(c1ccco1)N1CCN(C(=O)c2cc3c(=O)oc4ccccc4c3s2)CC1
cell number change: 6.31% | AC50 [1]: 0.82 µM [falling, single point]

COc1cccc(CN2CCN(C3CCN(c4cccc(C)c4C)CC3)CC2CCO)c1 (stereo unspecified)
cell number change: -18.8% | AC50 [1]: 3.26 µM [falling, full curve, poor fit]

COc1ccc(N2CC(C(=O)Nc3nnc(SCC(=O)NC4CCCC4)s3)CC2=O)cc1 (stereo unspecified)
cell number change: 6.07%

O=c1[nH]cnc2onc(-c3ccc(F)cc3)c12
cell number change: -12.6% | AC50 [1]: 0.517 µM [falling, full curve, poor fit]

COc1cccc2sc(N(CCCN(C)C)C(=O)c3ccc(S(=O)(=O)N4CCCc5ccccc54)cc3)nc12
cell number change: -25.9% | AC50 [1]: 1.64 µM [falling, partial curve]

Cc1nn(Cc2ccccc2)c(C)c1NC(=O)c1cc(-c2ccc3c(c2)OCO3)on1
AC50 [1]: 0.0731 µM [rising, full curve]

O=C(CSc1nc2ccccc2[nH]1)c1ccc2c(c1)OCO2
AC50 [2]: 6.51 µM [rising, single point] | AC50 [1]: 6.51 µM [rising, single point]

CCCCOc1ccc(C2NC(=O)NC(C)=C2C(C)=O)cc1OCC (stereo unspecified)
cell number change: -44.9%

CC(C)(C)C(=O)NC1CC2CCCC(C1)N2C(=O)Nc1ccc(Cl)cc1 (stereo unspecified)
cell number change: 4.56% | AC50 [2]: 0.0731 µM [rising, full curve, poor fit]

COc1ccc2oc(C(=O)OCC(=O)Nc3ccc(NC(C)=O)cc3)c(C)c2c1
cell number change: -30.8% | AC50 [2]: 2.06 µM [falling, full curve] | AC50 [1]: 0.82 µM [falling, full curve, poor fit]

CCOc1ncccc1C(=O)Nc1ccc(S(=O)(=O)Nc2nc(C)cc(C)n2)cc1
cell number change: 35.6% | AC50 [2]: 6.51 µM [rising, partial curve] | AC50 [1]: 14.6 µM [rising, partial curve, poor fit]

CCOC(=O)c1cc(-c2ccccc2)nn1-c1ccccn1
cell number change: 5.65% | AC50 [2]: 3.66 µM [rising, single point]

CN(C(=O)c1ccc(NC(=O)Cc2ccc(NC(=O)C3CCN(C(=O)C4CCC4)CC3)cc2)cc1)C1CC1
cell number change: -8.18% | AC50 [1]: 29.1 µM [falling, single point]

O=C(Nc1nc(-c2ccccc2)cs1)c1ccc(=O)[nH]c1
cell number change: 12.9%

CN(C)S(=O)(=O)c1cccc(C(=O)NCCCn2ccnc2)c1
cell number change: 56% | AC50 [2]: 0.326 µM [rising, partial curve] | AC50 [1]: 1.03 µM [rising, partial curve]

COc1cc(NC(=O)C2CC2)c(OC)cc1NC(=O)c1ccco1
cell number change: 20.5%

COCCn1c(SC(C)C(=O)NCC2CCCO2)nc2scc(-c3ccc(F)cc3)c2c1=O (stereo unspecified)
cell number change: -34% | AC50 [2]: 29.1 µM [falling, single point]

CC(=O)Nc1ccc(S(=O)(=O)N2CCN(Cc3ccccc3[N+](=O)[O-])CC2)cc1
cell number change: 10.2% | AC50 [2]: 0.731 µM [falling, full curve] | AC50 [1]: 2.91 µM [falling, full curve]

COc1ccc(-n2c(SCC(=O)NCC3CCCO3)nc3ccccc32)cc1 (stereo unspecified)
cell number change: -49.5% | AC50 [2]: 29.1 µM [falling, single point] | AC50 [1]: 16.4 µM [rising, partial curve]

[O-]/C(=C(\C(=S)Nc1ccc(SC(F)F)cc1)[n+]1ccccc1)c1ccc(Cl)cc1Cl
cell number change: 14% | AC50 [2]: 4.61 µM [rising, partial curve, poor fit] | AC50 [1]: 6.51 µM [rising, partial curve, poor fit]

CCCOc1ccccc1Cn1c(=O)oc2ccc(C)cc21
cell number change: 110% | AC50 [2]: 2.59 µM [rising, partial curve] | AC50 [1]: 6.51 µM [rising, partial curve, poor fit]

CC1CCN(C(=O)N2c3ccccc3Sc3ccccc32)CC1
cell number change: 30.1% | AC50 [2]: 7.31 µM [rising, partial curve, poor fit]

CCN1/C(=C/c2cc[n+](CCCS(=O)(=O)[O-])c3ccccc23)Sc2ccccc21
cell number change: -38.8% | AC50 [2]: 0.206 µM [falling, full curve, poor fit] | AC50 [1]: 5.8 µM [falling, partial curve]

CC1(C)C(=O)C2(CCCCC2)C(=O)OC1c1cccc([N+](=O)[O-])c1 (stereo unspecified)
cell number change: -2.5% | AC50 [1]: 2.91 µM [rising, partial curve]

CC1CCN(C(=O)CSc2nc3c(c(=O)n2C)SCC3)CC1
cell number change: 9.38%

COc1ccc(CNC(=S)Nc2ccc3nc(N4CCOCC4)cc(C)c3c2)cc1
cell number change: -36.9% | AC50 [2]: 25.9 µM [falling, single point] | AC50 [1]: 29.1 µM [falling, single point]

COC(=O)C(C)NC(=S)N1CCN(c2c(F)cc3c(=O)c(C(=O)O)cn(C4CC4)c3c2OC)CC1C (stereo unspecified)
cell number change: 29.2% | AC50 [2]: 1.84 µM [rising, partial curve, poor fit]

Cc1cccc(-c2cc(C(=O)Nc3ccncc3)c3ccccc3n2)c1
cell number change: -34.8% | AC50 [2]: 29.1 µM [falling, single point] | AC50 [1]: 29.1 µM [falling, single point]
